Experimental data as given in paper PMC8800269.
These are yes or no findings as the source states them, for the method shown. In cells and extracts the contact can be indirect. Some results given as binding are weak or reduced against the parent protein; the word gives no strength. Blank lines part the entries; values can stand above or below the binder they belong to.

Molecular target: T1, Leukemia inhibitory factor receptor (LIFR), endogenous in HK2 cells (human (endogenous in HK2)) (UniProt P42702)
T1 sequence: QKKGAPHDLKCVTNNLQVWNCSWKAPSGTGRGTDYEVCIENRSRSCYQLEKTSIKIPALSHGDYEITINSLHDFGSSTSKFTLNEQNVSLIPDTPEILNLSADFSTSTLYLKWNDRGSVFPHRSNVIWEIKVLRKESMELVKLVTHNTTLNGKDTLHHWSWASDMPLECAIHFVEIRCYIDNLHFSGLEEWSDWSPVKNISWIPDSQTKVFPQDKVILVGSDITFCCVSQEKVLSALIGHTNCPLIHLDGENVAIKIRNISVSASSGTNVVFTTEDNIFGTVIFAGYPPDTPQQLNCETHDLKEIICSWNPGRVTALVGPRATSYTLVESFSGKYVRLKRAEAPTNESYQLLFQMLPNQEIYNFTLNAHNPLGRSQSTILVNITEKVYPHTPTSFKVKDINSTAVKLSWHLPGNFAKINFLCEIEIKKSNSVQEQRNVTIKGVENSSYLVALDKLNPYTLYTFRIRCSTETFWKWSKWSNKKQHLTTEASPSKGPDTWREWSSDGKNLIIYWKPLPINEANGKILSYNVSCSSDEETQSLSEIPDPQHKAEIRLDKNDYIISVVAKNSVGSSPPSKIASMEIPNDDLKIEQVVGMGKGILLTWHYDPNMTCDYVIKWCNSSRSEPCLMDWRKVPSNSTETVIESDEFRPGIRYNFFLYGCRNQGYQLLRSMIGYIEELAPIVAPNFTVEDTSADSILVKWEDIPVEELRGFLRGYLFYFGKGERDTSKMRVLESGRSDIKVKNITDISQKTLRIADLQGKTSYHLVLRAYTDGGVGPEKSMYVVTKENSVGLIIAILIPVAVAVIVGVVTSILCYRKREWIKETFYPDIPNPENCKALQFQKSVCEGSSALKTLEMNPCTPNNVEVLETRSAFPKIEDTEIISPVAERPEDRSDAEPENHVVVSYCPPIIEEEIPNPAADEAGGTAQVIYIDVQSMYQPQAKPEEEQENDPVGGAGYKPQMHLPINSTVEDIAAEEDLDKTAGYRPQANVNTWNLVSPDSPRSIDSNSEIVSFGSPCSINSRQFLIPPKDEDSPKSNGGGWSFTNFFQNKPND
Assay: co-IP; lysates of HK-2 cells (ILEI-overexpressing groups, or cells treated with 5 ng/ml TGF-β1 for 48 h) incubated with protein A-agarose beads and anti-ILEI or anti-LIFR antibody at 4 °C; immunoblot with anti-LIFR and anti-ILEI

binding: binds
B1: Interleukin-like EMT inducer (ILEI), overexpressed from pcDNA3.1-ILEI (protein, UniProt Q92520 25-227)
chain: QVFEIKMDASLGNLFARSALDTAARSTKPPRYKCGISKACPEKHFAFKMASGAANVVGPKICLEDNVLMSGVKNNVGRGINVALANGKTGEVLDTKYFDMWGGDVAPFIEFLKAIQDGTIVLMGTYDDGATKLNDEARRLIADLGSTSITNLGFRDNWVFCGGKGIKTKSPFEQHIKNNKDTNKYEGWPEVVEMEGCIPQKQD

binding: binds
B2: Interleukin-like EMT inducer (ILEI), endogenous in HK2 cells (protein, UniProt Q92520 25-227)
chain: B1 chain
